Measurements from publication PMC5992430.
No constants are given. Whether binding was seen depends on the method and setting. For some assays here: In cells and extracts the contact can be indirect. Some results given as binding are weak or reduced against the parent protein; the word gives no strength.

Protein sequences, listed by entry. Tags and fused reporters are not part of them. Residues count along the entry.
UniProt P02769, residues 25-607: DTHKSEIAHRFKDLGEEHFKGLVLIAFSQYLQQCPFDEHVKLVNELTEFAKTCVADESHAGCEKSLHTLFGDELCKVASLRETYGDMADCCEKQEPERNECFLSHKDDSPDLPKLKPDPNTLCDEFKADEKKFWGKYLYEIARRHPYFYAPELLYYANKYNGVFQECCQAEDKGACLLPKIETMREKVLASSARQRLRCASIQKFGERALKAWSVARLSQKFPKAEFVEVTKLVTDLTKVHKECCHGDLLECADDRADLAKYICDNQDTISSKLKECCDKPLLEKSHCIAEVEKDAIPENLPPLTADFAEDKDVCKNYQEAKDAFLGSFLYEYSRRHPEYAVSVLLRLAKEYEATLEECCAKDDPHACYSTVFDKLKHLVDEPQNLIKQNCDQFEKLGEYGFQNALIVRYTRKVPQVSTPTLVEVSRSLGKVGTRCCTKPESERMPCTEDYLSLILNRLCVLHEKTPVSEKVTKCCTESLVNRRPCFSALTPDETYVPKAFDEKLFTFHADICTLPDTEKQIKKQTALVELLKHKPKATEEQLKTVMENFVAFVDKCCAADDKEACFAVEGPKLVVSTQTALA
UniProt P48357, residues 22-839: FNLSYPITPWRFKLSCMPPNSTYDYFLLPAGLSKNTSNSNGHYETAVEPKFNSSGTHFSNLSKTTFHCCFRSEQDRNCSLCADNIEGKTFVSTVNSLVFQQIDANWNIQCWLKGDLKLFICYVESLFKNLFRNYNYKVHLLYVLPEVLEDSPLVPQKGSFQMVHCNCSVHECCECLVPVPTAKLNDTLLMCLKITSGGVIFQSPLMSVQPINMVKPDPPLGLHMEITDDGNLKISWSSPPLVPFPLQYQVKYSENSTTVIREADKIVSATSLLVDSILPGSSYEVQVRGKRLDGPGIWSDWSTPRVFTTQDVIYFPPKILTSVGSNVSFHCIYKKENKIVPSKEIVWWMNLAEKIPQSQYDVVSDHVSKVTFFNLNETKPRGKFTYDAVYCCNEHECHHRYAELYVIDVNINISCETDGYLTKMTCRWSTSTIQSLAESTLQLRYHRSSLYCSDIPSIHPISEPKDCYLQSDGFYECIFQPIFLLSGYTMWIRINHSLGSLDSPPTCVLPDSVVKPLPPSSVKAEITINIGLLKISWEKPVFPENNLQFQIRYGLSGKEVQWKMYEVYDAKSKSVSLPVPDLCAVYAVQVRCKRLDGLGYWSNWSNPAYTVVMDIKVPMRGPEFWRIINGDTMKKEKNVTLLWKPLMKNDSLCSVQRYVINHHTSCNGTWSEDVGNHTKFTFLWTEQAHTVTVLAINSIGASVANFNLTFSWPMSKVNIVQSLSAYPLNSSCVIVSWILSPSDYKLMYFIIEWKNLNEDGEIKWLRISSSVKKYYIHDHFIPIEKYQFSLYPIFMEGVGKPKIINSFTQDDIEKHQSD

Tests used:
[1] = target: T1, Monomeric CRP prepared from human serum CRP (human) (UniProt P02741); test: ELISA; same solid phase binding assay with heat-treated mCRP coated on the plate (different concentrations, or 0.6 µg/ml); both purified
T1 sequence: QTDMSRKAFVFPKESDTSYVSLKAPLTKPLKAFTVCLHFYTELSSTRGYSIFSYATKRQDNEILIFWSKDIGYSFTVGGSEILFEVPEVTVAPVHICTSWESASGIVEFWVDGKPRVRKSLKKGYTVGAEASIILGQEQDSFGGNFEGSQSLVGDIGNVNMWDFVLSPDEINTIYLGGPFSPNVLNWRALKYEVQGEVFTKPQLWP

[2] = target: T2, Monomeric CRP prepared from recombinant CRP (UniProt P02741); test: ELISA; solid phase binding assay; CRP forms or control proteins coated on a 96-well plate at 4°C overnight in Tris/HCl 0.05 M pH 7.4 (different concentrations, or 0.6 µg/ml for Figure 5B); blocked with 0.5% gelatin; leptin receptor 100 ng/ml in 50 µl PBS added for 1 h at RT; detected with anti-Ob R antibody and HRP anti-rabbit IgG; both purified
T2 sequence: T1 sequence

[3] = target: Serum albumin (BSA) (bovine (printed as BSA)) (UniProt P02769); test: as above
Lysozyme = Lysozyme (UniProt P00698); test: as above
[4] = target: T3, C-reactive protein of human serum (human (endogenous in human serum)) (UniProt P02741); test: co-IP; human serum immunoprecipitated with anti-Ob R or anti-CRP and protein A beads; SDS-PAGE and Western blot probed with anti-CRP or anti-sOb R, ECL
T3 sequence: T1 sequence

| binding [2] | binding [3] | binding (Lysozyme) | binding [4] | Substance | binding [1] |
| --- | --- | --- | --- | --- | --- |
| binds | no binding (tested: 100 µg/ml coated) | no binding (tested: 100 µg/ml coated) |  | Soluble recombinant human leptin receptor (from UniProt P48357 22-839) | no binding (condition: heat-treated mCRP) |
|  |  |  | binds | Soluble leptin receptor of human serum (from UniProt P48357 22-839) |  |
